Where a name gives a salt, the structure may show the parent alone. This is one part of the list. Hit calls seldom repeat between salt and free forms of one compound.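 Kinases were expressed as nanoluciferase fusions in K562 cells and luminescence was read every 4 h between 2 and 18 h as percent of control, DMSO set to 100% and a positive control to 0%. A time point counts as decreased when the signal drops significantly (2 sigma). The hit call is the authors' own, does not follow from the count of time points alone, and its rule is not shown.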
Biological target: FGFR1 (UniProt P11362)
Assay: kinase-Nluc reporter destabilization hit call (1 = scored as downregulated) (binary); higher = compound decreases kinase abundance
Details: K562; 2-18 h

Amino acid sequences for entries named in this document (tags omitted).
UniProt P11362, whole entry, looked up: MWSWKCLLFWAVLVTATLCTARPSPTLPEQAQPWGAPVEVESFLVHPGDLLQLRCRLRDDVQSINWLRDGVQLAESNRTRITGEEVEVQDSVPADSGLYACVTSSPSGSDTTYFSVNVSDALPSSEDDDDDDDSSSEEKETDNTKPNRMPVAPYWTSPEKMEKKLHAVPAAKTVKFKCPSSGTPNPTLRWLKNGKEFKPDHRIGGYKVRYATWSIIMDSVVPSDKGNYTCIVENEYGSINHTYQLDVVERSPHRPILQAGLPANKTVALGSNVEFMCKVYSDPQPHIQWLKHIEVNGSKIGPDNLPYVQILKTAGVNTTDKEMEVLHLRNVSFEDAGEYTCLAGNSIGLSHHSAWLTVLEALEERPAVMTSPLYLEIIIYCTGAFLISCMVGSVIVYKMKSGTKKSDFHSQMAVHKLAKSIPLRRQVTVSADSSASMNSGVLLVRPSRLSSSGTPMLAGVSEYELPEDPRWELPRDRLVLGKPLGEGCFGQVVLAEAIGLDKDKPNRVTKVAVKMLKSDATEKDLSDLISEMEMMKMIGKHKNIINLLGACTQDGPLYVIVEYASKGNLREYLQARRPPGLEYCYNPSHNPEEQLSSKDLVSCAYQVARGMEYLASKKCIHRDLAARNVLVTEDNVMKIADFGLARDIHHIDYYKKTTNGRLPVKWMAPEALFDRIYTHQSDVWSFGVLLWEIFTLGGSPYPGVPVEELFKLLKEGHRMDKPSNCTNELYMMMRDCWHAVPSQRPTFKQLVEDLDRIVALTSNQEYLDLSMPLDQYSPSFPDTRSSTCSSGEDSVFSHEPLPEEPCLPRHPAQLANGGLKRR

kinase-Nluc reporter destabilization hit call, inactive:
Cc1[nH]c(/C=C2\C(=O)Nc3ccccc32)c(C)c1CCC(=O)O [(Z)-Orantinib] (10 µM) 0
NC(=O)c1ccc(-c2nc(-c3ccc4c(c3)OCCO4)c(-c3ccccn3)[nH]2)cc1 (10 µM) 0
CCNc1nc(Nc2cc(F)c(C(=O)N3CCOCC3)cc2OC)ncc1C(F)(F)F [GNE-7915 (tosylate)] (10 µM) 0
Cc1cc(O)c2c(c1)C(=O)c1cc(O)cc(O)c1C2=O [Emodin] (10 µM) 0
Cc1ccc(C(=O)Nc2ccc(Oc3cc4cnn(C)c4cc3-c3cn[nH]c3)c(F)c2)c(=O)n1-c1ccc(F)cc1 [Merestinib dihydrochloride] (2.5 µM) 0
C=CC(=O)Nc1cc(C)ccc1Nc1nc(Nc2cc(OC)ncc2C)ncc1C(F)(F)F (10 µM) 0
Oc1cc(O)c2cc(O)c(-c3cc(O)c(O)c(O)c3)[o+]c2c1 [Delphinidin (chloride)] (10 µM) 0
O=C1NC(=O)/C(=C\c2cccc(C(F)(F)F)c2)S1 (2.5 µM) 0
Cc1nc2sccn2c(=O)c1CCN1CCC(=C(c2ccccc2)c2ccc(F)cc2)CC1 (10 µM) 0
CCc1cc2c(cc1N1CCC(N3CCOCC3)CC1)C(C)(C)c1[nH]c3cc(C#N)ccc3c1C2=O [Alectinib (Hydrochloride)] (2 µM) 0
FC(F)(c1ccc2ncccc2c1)c1nnc2ccc(-c3ccncc3)nn12 (10 µM) 0
O=C(N/N=C/c1coc2ccccc2c1=O)c1cccnc1 (10 µM) 0
O=C(Nc1ccc(CN2CCOCC2)cc1)c1ccc(-c2cccc(Cl)c2)o1 (10 µM) 0
NC(=O)c1nnc(N[C@@H]2CCCC[C@@H]2N)nc1Nc1cccc2cc[nH]c12 (10 µM) 0
COc1cc2ncc(-c3ccccc3)nc2cc1OC [Tyrphostin AG1296] (10 µM) 0
O=C(NOCC(O)CO)c1cc(Br)c(F)c(F)c1Nc1ccc(I)cc1F (stereo not drawn) (2.5 µM) 0
Cn1cnc(Cn2ccc3ccc(CNCc4[nH]c5ccccc5c4[C@H]4NC(=O)c5ccc(O)cc54)cc32)c1 (10 µM) 0
CC(=O)c1c(C)cc2cccc(O)c2c1O [Nepodin] (10 µM) 0
COc1cc(Nc2ncc(F)c(Nc3ccc4c(n3)N(COP(=O)(O)O)C(=O)C(C)(C)O4)n2)cc(OC)c1OC [Fostamatinib (disodium hexahydrate)] (10 µM) 0
Cc1ccccc1-c1c2nccc(-c3ccc(F)cc3F)c2cc[n+]1[O-] (10 µM) 0
Cn1nccc1Nc1nccc(-c2ccn([C@H](CO)c3ccc(Cl)c(F)c3)c(=O)c2)n1 [Ravoxertinib hydrochloride] (10 µM) 0
Nc1nc(F)nc2c1ncn2[C@@H]1O[C@H](CO)[C@@H](O)[C@@H]1O [Fludarabine] (10 µM) 0
O=C(CSC1=NCCN1)NC1CCCCCC1 [ICCB-19 (hydrochloride)] (2.5 µM) 0
CNC(=O)c1c(F)cccc1Nc1nc(Nc2cc3c(cc2OC)CCN3C(=O)CN(C)C)nc2[nH]ccc12 (10 µM) 0
COc1ccc(-c2ccc3c(N4CCOCC4)nc(N4C[C@@H](C)O[C@@H](C)C4)nc3n2)cc1CO (2.5 µM) 0
CC1=C(C(=O)O)N2C(=O)[C@@H](NC(=O)[C@H](N)C3=CCC=CC3)[C@H]2SC1 [Cephradine] (10 µM) 0
Cc1c(-c2c(F)cc(C(N)=O)c3[nH]c4c(c23)CC[C@H](C(C)(C)O)C4)cccc1-n1c(=O)c2cccc(F)c2n(C)c1=O (2.5 µM) 0
Cn1ncc(Cl)c1-c1cc(C(=O)N[C@H](CN)Cc2ccc(F)c(F)c2)oc1Cl [Uprosertib] (10 µM) 0
Cc1cccc(Oc2cnc(=O)[nH]c2)c1 [Tolimidone] (10 µM) 0
C[C@@H]1CCN(C(=O)CC#N)C[C@@H]1N(C)c1ncnc2[nH]ccc12 [Tofacitinib (citrate)] (10 µM) 0
COc1ccc(OC)c(C2C(C#N)=C(N)Oc3n[nH]c(-c4ccc5ccccc5c4)c32)c1 (stereo not drawn) (10 µM) 0
C=C1C(=O)O[C@H]2C[C@H](C)C(/C=C/C(C)=O)=CC[C@H]12 [Xanthatin] (2.5 µM) 0
C[C@]1(O)CCN(c2nc(N3C[C@H](O)[C@@H](O)C3)cc(C(F)(F)F)c2C#N)C1 (10 µM) 0
Cc1cc(Nc2ncnc3ccc(NC4=NC(C)(C)CO4)cc23)ccc1Oc1ccn2ncnc2c1 [Tucatinib (hemiethanolate)] (2.5 µM) 0
CCN1CCN(Cc2ccc(Nc3ncc(F)c(-c4cc(F)c5nc(C)n(C(C)C)c5c4)n3)nc2)CC1 [Abemaciclib (methanesulfonate)] (10 µM) 0
Cc1cc(=O)oc2c(C=O)c(O)ccc12 (10 µM) 0
CC1(C)C(O[C@@H]2OC[C@@H](O)[C@H](O)[C@H]2O)CC[C@]23CC24CC[C@]2(C)[C@@H]([C@@]5(C)CC[C@@H](C(C)(C)O)O5)[C@H](O)C[C@@]2(C)C4C[C@@H](O[C@@H]2O[C@H](CO)[C@@H](O)[C@H](O)[C@H]2O)C13 (stereo partly drawn) [Astragaloside IV] (10 µM) 0
CC[C@@H](Oc1nc(Oc2cc(C)cc(-c3cccc(CN)c3)c2)c(F)cc1F)C(=O)O (10 µM) 0

Gathered by group, those above containing an aryl methoxy group.
kinase-Nluc reporter destabilization hit call, inactive:
CCNc1nc(Nc2cc(F)c(C(=O)N3CCOCC3)cc2OC)ncc1C(F)(F)F [GNE-7915 (tosylate)] (10 µM) 0
C=CC(=O)Nc1cc(C)ccc1Nc1nc(Nc2cc(OC)ncc2C)ncc1C(F)(F)F (10 µM) 0
COc1cc2ncc(-c3ccccc3)nc2cc1OC [Tyrphostin AG1296] (10 µM) 0
COc1cc(Nc2ncc(F)c(Nc3ccc4c(n3)N(COP(=O)(O)O)C(=O)C(C)(C)O4)n2)cc(OC)c1OC [Fostamatinib (disodium hexahydrate)] (10 µM) 0
CNC(=O)c1c(F)cccc1Nc1nc(Nc2cc3c(cc2OC)CCN3C(=O)CN(C)C)nc2[nH]ccc12 (10 µM) 0
COc1ccc(-c2ccc3c(N4CCOCC4)nc(N4C[C@@H](C)O[C@@H](C)C4)nc3n2)cc1CO (2.5 µM) 0
COc1ccc(OC)c(C2C(C#N)=C(N)Oc3n[nH]c(-c4ccc5ccccc5c4)c32)c1 (stereo not drawn) (10 µM) 0

— the supplement of paper PMC12823440, “Inhibitors supercharge kinase turnover through native proteolytic circuits” (Nature, 2025)
